Measurements published in patent publication US20070248589A1 (GOVERNMENT OF THE UNITED STATES OF AMERICA AS REPRESENTED …, published 2007).

Target: Myc-tagged, full-length mouse Uba3 (mouse)
Assay: GST pulldown from a mixture of 35S-labelled Myc-Uba3 and AppBP1

B1: GST-SPATIAL long isoform fusion protein (other)
chain: LFLGNVYKGSLAPRRDEVTSPKAEPQPETKPENLPRSHGDVGLQKETVVPGIVDFELIHEELKTTKPQTSQPTPSAYRFGRLSHHSFFSRHHPQPQRVTHIQVTGREDLEHSLPLTTSFQLLQAPGVQPMDLTPSADIAGKPVCVVRDEFSLSALTQPTFLSRCLMGMPTISVPIGDPQSNRNPQLSTSDTWRKKLKDLASRVTVFTKEIQPKPDEVGVAQRMEPRKKRPS
notes: SPATIAL cDNA cloned into pGEx5X1, expressed in bacteria and held on glutathione-Sepharose beads; not shown: glutathione-S-transferase (GST) encoded by the pGEx5X1 expression vector
For B1, the binding was “binds”.

Results are given in words; binding and its absence hold for the method and conditions named. Binding seen in cells or lysates may run through a third protein. Binding calls can cover weak binding; strength is not graded here. Where a sequence is shown, tags or fusion partners need not be part of it.
